US7012133
No constants are given. Whether binding was seen depends on the method and setting. Some results given as binding are weak or reduced against the parent protein; the word gives no strength. For some of these results: Tags and fused reporters may be left off the sequences shown.

Protein sequences, listed by entry. Tags and fused reporters are not part of them. Residues count along the entry.
UniProt P80098, residues 24-99: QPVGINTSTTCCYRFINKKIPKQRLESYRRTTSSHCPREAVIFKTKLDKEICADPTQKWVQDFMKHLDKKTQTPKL
UniProt P13501, residues 24-91: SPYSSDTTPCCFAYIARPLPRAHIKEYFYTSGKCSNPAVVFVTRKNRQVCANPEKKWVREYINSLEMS
UniProt P51671, residues 24-97: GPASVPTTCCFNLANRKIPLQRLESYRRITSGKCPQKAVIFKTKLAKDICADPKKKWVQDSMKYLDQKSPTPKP

Assays:
[1] = target: T1, FLAG-tagged Eos L2 (CKR-3) receptor (human) (UniProt P51677); experiment: competition with 0.6 nM 125I-eotaxin on E5 cells
T1 sequence: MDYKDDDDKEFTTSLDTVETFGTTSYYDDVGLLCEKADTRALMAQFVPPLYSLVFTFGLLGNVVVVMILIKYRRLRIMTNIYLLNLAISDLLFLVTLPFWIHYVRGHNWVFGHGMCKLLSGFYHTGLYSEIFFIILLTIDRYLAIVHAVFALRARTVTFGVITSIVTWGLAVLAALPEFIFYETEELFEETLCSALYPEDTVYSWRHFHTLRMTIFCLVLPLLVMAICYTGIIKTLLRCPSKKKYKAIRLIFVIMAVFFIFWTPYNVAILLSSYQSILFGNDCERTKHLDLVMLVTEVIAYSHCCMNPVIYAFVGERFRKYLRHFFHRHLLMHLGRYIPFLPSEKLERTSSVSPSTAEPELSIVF

[2] = target: T2, receptor encoded by the A31 cDNA clone (human CKR-3 / Eos L2) (human) (UniProt P51677); experiment: 125I-MCP-3 on membranes of A31-293-#20 cells
T2 sequence: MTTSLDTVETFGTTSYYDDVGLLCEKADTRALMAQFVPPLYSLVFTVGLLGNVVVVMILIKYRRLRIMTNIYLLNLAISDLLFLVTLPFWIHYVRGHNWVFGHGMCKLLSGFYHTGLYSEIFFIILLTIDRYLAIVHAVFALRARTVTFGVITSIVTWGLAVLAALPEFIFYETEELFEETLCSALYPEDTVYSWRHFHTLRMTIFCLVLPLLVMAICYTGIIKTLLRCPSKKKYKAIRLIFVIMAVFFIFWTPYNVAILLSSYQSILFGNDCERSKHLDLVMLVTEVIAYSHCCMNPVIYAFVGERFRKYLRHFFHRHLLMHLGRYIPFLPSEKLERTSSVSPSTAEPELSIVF

[3] = target: T2, receptor encoded by the A31 cDNA clone (human CKR-3 / Eos L2) (human); experiment: 0.125 nM 125I-MCP-3 on membranes of A31-293-#20 cells, displacement
[4] = target: T1, FLAG-tagged Eos L2 (CKR-3) receptor (human); experiment: 0.1 nM 125I-RANTES on Eos L2 baculovirus-infected SF9 cells
[5] = target: T2, receptor encoded by the A31 cDNA clone (human CKR-3 / Eos L2) (human); experiment: 0.125 nM 125I-RANTES on membranes of A31-293-#20 cells, filter binding
[6] = target: T1, FLAG-tagged Eos L2 (CKR-3) receptor (human); experiment: 0.6 nM 125I-eotaxin on E5 cells with cold competitor

binding [1] | binding [2] | binding [3] | binding [4] | binding [5] | binding [6] | Substance
binds | binds | binds | – | – | – | MCP-3 (from UniProt P80098 24-99) (ligand)
binds | – | – | binds | binds | – | RANTES (from UniProt P13501 24-91) (ligand)
– | – | – | – | – | binds | human eotaxin (from UniProt P51671 24-97) (ligand)
